Measurements taken from patent publication US20250257111A1, “Supramolecular Complex of a Biomolecule” (Cambridge Enterprise Limited, priority 2022, published 2025).
Where “and” joins values, the source holds several entries; their conditions need not be identical. Equal values may be shown once. Square brackets hold non-standard residues; d marks the D form. Peptide text beside a SMILES is read from it. 2Nal = N[C@@H](Cc1ccc2ccccc2c1)C(=O)O

Columns and labels:
[1] = system: 1:1 complex of F′GG-CB[8]; experiment: ITC: secondary association of tripeptides with the 1:1 complex of F′GG-CB[8]; format: binding; conditions: for ΔHa / −TΔSa: ITC, 10 mM phosphate buffer pH 7.0, 298 K, averaged with three replicates
Method: Isothermal titration calorimetry (ITC) was employed to study binding thermodynamics of heteropeptide dimerization (FIG. 2c and additional data not shown). Titration of F′GG (3.0 mM) into CB[8](0.1 mM) led to a stepwise binding curve with two transitions at molar ratios of 1.0 and 2.0 (FIG. 2c). The first-step binding constant (K1) is 6.6×10^5 M^−1, while the second-step (K2) is 9.4×10^3 M^−1. This indicates negative cooperativity where K1>K2^18,19,23 Such favourable 1:1 complexation enables secondary access of electron-rich aromatic peptides.
ITC experiments were operated on a Malvern MicroCal Auto-ITC200 apparatus at 298 K in 10 mM phosphate buffer with pH 7.0. In a of 1 injection of 0.6 μL and 32 consecutive injections of 1.2 μL with 90 s intervals between injections. The first data point was removed before analysis. The ITC data were fitted by MicroCal Analysis Centre software using one set of sites model. In a typical experiment for homoternary complexation, the host molecule (CB[8]) was loaded in the sample cell with a concentration of 0.1 mM, and the guest peptide was loaded in the syringe with a concentration of 2.0 mM. The injection and interval settings were the same as above. The first data point was removed from the data set before analysis. The obtained ITC curves were fitted by MicroCal Analysis Centre software using sequential binding model. All parameters were averaged with three replicates, s.d. n=3.

[2] = UV quantification of on-resin recognition of WGG
[3] = 1H NMR quantification of on-resin selective isolation from a peptide mixture
[4] = UV quantification of insulin on-resin recognition, 8-day storage and on-demand release; format: physicochemical
Method: UV spectra were obtained on a Cary 4000 Ultravioletvisible Spectrometer. A pair of quartz cuvettes with 2 mm gap was used. Double beam mode with a fixed 2 nm spectral bandwidth and baseline correction were selected. In a typical run, 300 μl of 1 mM solution was transferred to the quartz cuvette and was scanned compared to phosphate buffer in D2O. UV spectra were obtained in the linear absorption range (0.2-0.8) for better quantification.
1 N HCl was immediately added to reach acid concentration of 5 mM. […] In a typical experiment, 8 μmol F′GGGGG equivalent of resin H2O suspension was added to a 12 ml syringe with a polyester frit (r=8.0 mm, h=2.0 mm). After H2Owas drained, 8 ml of 0.1 mM CB[8] solution was added to the resin and the plunge and a stopper were assembled to the syringe to form a sealed chamber. The syringe was transferred onto a wrist-action shaker and shaken for 12 hours. […] Then, the liquid (resin-treated solution) in syringe was drained thoroughly and the resin was washed with H2Oonce. After that, 0.8 ml of 2 mM DMADA solution (in 5 mM of HCl) was added to the resin and shaken gently for an additional 3 hours. The solution (released solution) was drained.
The 8-day storage and release experiment was conducted as follows. 9 syringes were prepared each with 8 μmol F′GGGGG equivalent of resin H2Osuspension. […] All syringes with the resin were kept at room temperature. Starting from day 0 to day 8, on each day, a syringe with resin was added with 0.8 ml of 2 mM DMADA solution (to get released solution, one per day). All yielded solutions were analyzed on UV spectroscopy immediately. Numbers to calculate released percentage in FIG. 4g were absorbance at 276 nm.

[5] = cycle 0 (original mixture WGG, KGG, EGG, LGG 1.0 mM, CB[8] 1.0 mM)

In the case of `NCC(=O)NCC(=O)N[C@@H](Cc1ccc2ccccc2c1)C(N)=O` [GGNp, (S)-2-(2-(2-aminoacetamido)acetamido)-3-(naphthalen-2-yl)propanamide] (H-Gly-Gly-[2Nal]-NH2), the ΔHa [1] is reported as -12.0 ± 0.1 kcal/mol and the “−TΔSa” value [1] is reported as 5.2 ± 0.1 kcal/mol.
With `NCC(=O)NCC(=O)N[C@@H](Cc1ccccc1)C(N)=O` [GGF, (S)-2-(2-(2-aminoacetamido)acetamido)-3-phenylpropanamide] (H-Gly-Gly-Phe-NH2) the ΔHa [1] was -7.5 ± 0.2 kcal/mol and the “−TΔSa” value [1] was 1.5 ± 0.2 kcal/mol.
With `NCC(=O)N[C@@H](Cc1ccc(O)cc1)C(=O)NCC(N)=O` [GYG] (H-Gly-Tyr-Gly-NH2) the ΔHa [1] was -4.7 ± 0.2 kcal/mol and the “−TΔSa” value [1] was -0.2 ± 0.3 kcal/mol.
In the case of `NCC(=O)N[C@@H](Cc1ccc2ccccc2c1)C(=O)NCC(N)=O` [GNpG, (S)—N-(2-amino-2-oxoethyl)-2-(2-aminoacetamido)-3-(naphthalen-2-yl)propanamide] (H-Gly-[2Nal]-Gly-NH2), the ΔHa [1] is reported as -12.7 ± 0.4 kcal/mol and the “−TΔSa” value [1] is reported as 5.6 ± 0.4 kcal/mol.
In the case of `NC(=O)CNC(=O)CNC(=O)[C@@H](N)Cc1ccc2ccccc2c1` [NpGG, (S)-2-amino-N-(2-((2-amino-2-oxoethyl)amino)-2-oxoethyl)-3-(naphthalen-2-yl) propanamide] (H-[2Nal]-Gly-Gly-NH2), the ΔHa [1] is reported as -14.6 ± 0.2 kcal/mol and the “−TΔSa” value [1] is reported as 7.0 ± 0.2 kcal/mol.
In the case of `NCC(=O)N[C@@H](Cc1c[nH]c2ccccc12)C(=O)NCC(N)=O` [GWG, (S)—N-(2-amino-2-oxoethyl)-2-(2-aminoacetamido)-3-(1H-indol-3-yl)propanamide] (H-Gly-Trp-Gly-NH2), the ΔHa [1] is reported as -11.9 ± 0.1 kcal/mol and the “−TΔSa” value [1] is reported as 5.0 ± 0.1 kcal/mol.
For `NC(=O)CNC(=O)CNC(=O)[C@@H](N)Cc1ccccc1` [FGG, (S)-2-amino-N-(2-((2-amino-2-oxoethyl)amino)-2-oxoethyl)-3-phenylpropanamide] (H-Phe-Gly-Gly-NH2), the ΔHa [1] was -14.4 ± 0.4 kcal/mol and the “−TΔSa” value [1] was 6.8 ± 0.3 kcal/mol.
With `NC(=O)CNC(=O)CNC(=O)[C@@H](N)Cc1c[nH]c2ccccc12` [WGG, (S)-2-amino-N-(2-((2-amino-2-oxoethyl)amino)-2-oxoethyl)-3-(1H-indol-3-yl) propanamide] (H-Trp-Gly-Gly-NH2) the “absorption efficiency for on-resin recognition” value ([2]; WGG-CB[8] (1.0 mM) with F′GGGGG-resin (10.0 mM), 25° C., 10 min) was 77%, the on-resin recycling efficiency ([2]; WGG-CB[8], 3 cycles, same batch of resin, release by DMADA) was “above 98%” and the “recognition of free WGG by physical absorption” value ([2]; without CB[8], F′GGGGG-resin) was 19%. For the same molecule, the “final yield of WGG” value ([3]; after 3 cycles of selective separation (77% x77% x77%)) was 45.6%, the “percentage (%) within peptide mixture” value [3, 5] was 26% and 24.5% and the “percentage (%) within peptide mixture” value ([3]; cycle 1 released solution) was 72.7%. The “percentage (%) within peptide mixture” value ([3]; cycle 2 released solution) was 86.7%, the “percentage (%) within peptide mixture” value ([3]; cycle 3 released solution) was > 95% and 95.0% and the “yield of the selectively separated WGG” value ([3]; single cycle) was 77%. The ΔHa [1] was -13.3 ± 0.2 kcal/mol, the “−TΔSa” value [1] was 5.6 ± 0.2 kcal/mol and the “ratio of hetero- and homopeptide dimers (R)” value ([1]; equimolar mixture of F′GG, CB[8] and XGG, social self-sorting) was 2291.
In the case of `NC(=O)CNC(=O)CNC(=O)[C@@H](N)Cc1ccc(O)cc1` [YGG] (H-Tyr-Gly-Gly-NH2), the ΔHa [1] is reported as -9.6 ± 0.1 kcal/mol and the “−TΔSa” value [1] is reported as 3.6 ± 0.2 kcal/mol.
With “insulin: Insulin (Human Recombinant), purchased; widely-used biopharmaceutical for diabetes treatment” the “UV absorbance at 276 nm, original” value ([4]; day 0) was 0.2351 abs, the “UV absorbance at 276 nm, resin-treated” value ([4]; day 0) was 0.01213 abs and the “UV absorbance at 276 nm, original” value ([4]; day 2) was 0.2351 abs. For the same molecule, the “UV absorbance at 276 nm, resin-treated” value ([4]; day 2) was 0.00845 abs, the “UV absorbance at 276 nm, original” value ([4]; day 5) was 0.2351 abs and the “UV absorbance at 276 nm, resin-treated” value ([4]; day 5) was 0.01349 abs. The “UV absorbance at 276 nm, original” value ([4]; day 8) was 0.2351 abs and the “UV absorbance at 276 nm, resin-treated” value ([4]; day 8) was 0.01162 abs.
In the case of `NCC(=O)N[C@@H](Cc1ccccc1)C(=O)NCC(N)=O` [GFG, (S)—N-(2-amino-2-oxoethyl)-2-(2-aminoacetamido)-3-phenylpropanamide] (H-Gly-Phe-Gly-NH2), the ΔHa [1] is reported as -9.1 ± 0.4 kcal/mol and the “−TΔSa” value [1] is reported as 2.6 ± 0.4 kcal/mol.
With `NC(=O)CNC(=O)CNC(=O)[C@@H](N)CCC(=O)O` [EGG] (H-Glu-Gly-Gly-NH2) the “percentage (%) within peptide mixture” value [3, 5] was 27.7%, the “percentage (%) within peptide mixture” value ([3]; cycle 1 released solution) was 12.7% and the “percentage (%) within peptide mixture” value ([3]; cycle 2 released solution) was 3.5%. For the same molecule, the “percentage (%) within peptide mixture” value ([3]; cycle 3 released solution) was 2.4%.
With `CC(C)C[C@H](N)C(=O)NCC(=O)NCC(N)=O` [LGG] (H-Leu-Gly-Gly-NH2) the “percentage (%) within peptide mixture” value [3, 5] was 25.2%, the “percentage (%) within peptide mixture” value ([3]; cycle 1 released solution) was 6.7% and the “percentage (%) within peptide mixture” value ([3]; cycle 2 released solution) was 7.6%. The “percentage (%) within peptide mixture” value ([3]; cycle 3 released solution) was 1.0%.
With `NCCCC[C@H](N)C(=O)NCC(=O)NCC(N)=O` [KGG, (S)-2,6-diamino-N-(2-((2-amino-2-oxoethyl)amino)-2-oxoethyl)hexanamide] (H-Lys-Gly-Gly-NH2) the “percentage (%) within peptide mixture” value [3, 5] was 22.6%, the “percentage (%) within peptide mixture” value ([3]; cycle 1 released solution) was 7.9% and the “percentage (%) within peptide mixture” value ([3]; cycle 2 released solution) was 2.2%. The “percentage (%) within peptide mixture” value ([3]; cycle 3 released solution) was 1.6%.
